Results are given in words; binding and its absence hold for the method and conditions named. Binding seen in cells or lysates may run through a third protein. Some results given as binding are weak or reduced against the parent protein; the word gives no strength. Where a sequence is shown, tags or fusion partners need not be part of it.
How the values were obtained:
[1] = molecular target: T1, 3xFLAG-NEK1 full length (1-1286) (human) (UniProt Q96PY6); experiment: co-IP
T1 sequence: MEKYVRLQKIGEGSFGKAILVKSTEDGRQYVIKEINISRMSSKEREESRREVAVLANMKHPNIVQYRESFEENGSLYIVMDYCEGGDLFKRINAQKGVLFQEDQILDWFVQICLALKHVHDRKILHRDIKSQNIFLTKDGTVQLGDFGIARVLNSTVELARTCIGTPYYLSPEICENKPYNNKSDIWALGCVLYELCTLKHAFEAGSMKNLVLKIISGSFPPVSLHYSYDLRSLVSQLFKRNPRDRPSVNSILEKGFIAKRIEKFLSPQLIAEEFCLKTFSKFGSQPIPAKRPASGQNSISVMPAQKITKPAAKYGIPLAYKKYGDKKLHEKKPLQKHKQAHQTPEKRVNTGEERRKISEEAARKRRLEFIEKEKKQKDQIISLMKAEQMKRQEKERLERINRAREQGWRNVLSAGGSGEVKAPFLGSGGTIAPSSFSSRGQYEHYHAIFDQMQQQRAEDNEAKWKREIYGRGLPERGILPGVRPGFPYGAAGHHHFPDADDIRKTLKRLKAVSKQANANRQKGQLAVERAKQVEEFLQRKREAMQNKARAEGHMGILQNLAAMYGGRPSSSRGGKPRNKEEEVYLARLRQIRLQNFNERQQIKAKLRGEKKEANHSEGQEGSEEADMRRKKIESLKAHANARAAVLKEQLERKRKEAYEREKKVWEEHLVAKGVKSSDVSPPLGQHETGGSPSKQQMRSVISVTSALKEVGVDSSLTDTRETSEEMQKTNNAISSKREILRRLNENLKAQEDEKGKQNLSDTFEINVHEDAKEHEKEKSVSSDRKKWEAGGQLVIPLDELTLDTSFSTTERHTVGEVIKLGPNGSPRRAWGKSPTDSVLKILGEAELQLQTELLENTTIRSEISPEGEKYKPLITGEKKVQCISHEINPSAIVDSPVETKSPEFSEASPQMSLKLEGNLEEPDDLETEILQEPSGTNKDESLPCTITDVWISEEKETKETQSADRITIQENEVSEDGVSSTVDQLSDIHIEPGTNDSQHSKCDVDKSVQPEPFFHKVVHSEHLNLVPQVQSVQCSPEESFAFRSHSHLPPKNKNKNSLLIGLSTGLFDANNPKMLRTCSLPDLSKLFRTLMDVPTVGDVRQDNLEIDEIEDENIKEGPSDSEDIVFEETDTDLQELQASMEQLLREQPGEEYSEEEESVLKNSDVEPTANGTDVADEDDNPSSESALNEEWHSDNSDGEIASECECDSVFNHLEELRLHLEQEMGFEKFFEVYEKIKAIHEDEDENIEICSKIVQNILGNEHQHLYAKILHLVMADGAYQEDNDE

[2] = molecular target: T2, 3xFLAG-NEK1 R261H (human) (UniProt Q96PY6); experiment: co-IP
T2 sequence: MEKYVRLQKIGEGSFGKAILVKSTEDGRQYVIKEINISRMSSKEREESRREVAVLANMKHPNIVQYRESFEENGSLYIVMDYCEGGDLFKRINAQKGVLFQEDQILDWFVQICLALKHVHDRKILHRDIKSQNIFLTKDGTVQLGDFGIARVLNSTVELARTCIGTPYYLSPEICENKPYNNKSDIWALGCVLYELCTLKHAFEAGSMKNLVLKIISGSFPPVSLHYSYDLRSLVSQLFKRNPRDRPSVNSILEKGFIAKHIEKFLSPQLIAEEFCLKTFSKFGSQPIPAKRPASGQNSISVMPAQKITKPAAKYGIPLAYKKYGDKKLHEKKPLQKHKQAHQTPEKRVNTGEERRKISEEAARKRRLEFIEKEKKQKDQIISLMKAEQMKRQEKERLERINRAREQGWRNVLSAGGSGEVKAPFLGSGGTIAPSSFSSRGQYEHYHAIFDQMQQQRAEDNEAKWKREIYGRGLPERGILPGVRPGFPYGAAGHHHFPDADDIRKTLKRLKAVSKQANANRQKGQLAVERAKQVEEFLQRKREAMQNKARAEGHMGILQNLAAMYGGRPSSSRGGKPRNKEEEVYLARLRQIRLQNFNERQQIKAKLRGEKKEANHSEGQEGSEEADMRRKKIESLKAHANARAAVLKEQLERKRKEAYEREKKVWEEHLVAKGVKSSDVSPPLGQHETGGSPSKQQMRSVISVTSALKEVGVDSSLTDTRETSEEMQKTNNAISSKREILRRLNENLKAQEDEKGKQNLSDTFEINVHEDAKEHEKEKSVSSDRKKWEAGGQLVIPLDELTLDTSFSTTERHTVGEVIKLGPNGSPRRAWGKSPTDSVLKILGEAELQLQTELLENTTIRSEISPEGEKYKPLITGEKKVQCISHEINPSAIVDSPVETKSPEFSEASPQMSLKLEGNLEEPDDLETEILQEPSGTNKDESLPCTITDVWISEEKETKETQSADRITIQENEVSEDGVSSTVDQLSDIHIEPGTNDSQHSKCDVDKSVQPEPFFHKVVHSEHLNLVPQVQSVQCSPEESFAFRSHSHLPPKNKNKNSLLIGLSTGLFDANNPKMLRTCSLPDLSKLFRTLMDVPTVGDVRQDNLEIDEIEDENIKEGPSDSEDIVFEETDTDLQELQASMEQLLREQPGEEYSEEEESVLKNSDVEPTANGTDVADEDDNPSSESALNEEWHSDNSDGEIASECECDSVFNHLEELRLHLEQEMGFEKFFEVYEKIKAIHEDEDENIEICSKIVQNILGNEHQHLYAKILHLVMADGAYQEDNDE

binding [1]: binds
binding [2]: binds
B1: 3xHA-C21ORF2 wild type (protein, UniProt O43822-1 1-256)
chain: MKLTRKMVLTRAKASELHSVRKLNCWGSRLTDISICQEMPSLEVITLSVNSISTLEPVSRCQRLSELYLRRNRIPSLAELFYLKGLPRLRVLWLAENPCCGTSPHRYRMTVLRTLPRLQKLDNQAVTEEELSRALSEGEEITAAPEREGTGHGGPKLCCTLSSLSSAAETGRDPLDSEEEATSGAQDERGLKPPSRGQFPSLSARDASSSHRGRNVLTAILLLLRELDAEGLEAVQQTVGSRLQALRGEEVQEHAE

From doi:10.1101/2022.08.31.505651
